# Results published in PubChem BioAssay AID1259415 (National Center for Advancing Translational Sciences (NCATS), 2018).
# Out of some 410,000 compounds screened, about 18,000 (4.4%) were called active. Inconclusive results, whose numbers are uncertain, are shown with a selection of clear calls. Rule as the data show it: active = activity change below about -60%; inconclusive = no clear call, values can overlap the other calls; inactive = above about -39%.
# Assay: qHTS Assay for inhibitors of the human cytomegalovirus (HCMV)
# Settings: HFF cells, HCMV-luciferase reporter, 72 h; at 57.5 µM; active compounds read low
# Summary of the method: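 Luciferase read-out from HCMV-luciferase-infected HFFs (MOI 1 PFU/cell) 72 h post infection at 37C; compounds added after 16 h cell attachment; activity normalized between buffer-only basal and Salinomycin (10uM) inhibitor controls.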
# % is scaled to controls: 0 for no effect and ±100 for the full control effect.
row,Structure (SMILES),"activity change, negative = inhibition"
1,CCCCc1ccc(NC(=S)NCc2cccs2)cc1,active: -80%
2,O=C(N/N=C/c1ccc(O)cc1O)c1ccc(CN2C(=O)c3cccc4cccc2c34)cc1,active: -101%
3,CCOC(=O)COc1nc(-c2ccc(C)cc2)cc(-c2ccco2)c1C#N,inconclusive: -40%
4,CCOC(=O)[C@]12Cc3cc(OC)ccc3[C@H]1N(C)C(=O)c1cc(OC)ccc12,active: -106%
5,CCCC[N+]1(C)[C@@H]2CC(OC(=O)[C@H](CO)c3ccccc3)C[C@H]1[C@@H]1O[C@@H]12 (stereo not given in full),inconclusive: -43%
6,CCCC(=O)Nc1ccc2nc(SCc3ccc(C)cc3)sc2c1,inactive: -18.4%
7,CO[C@H]1[C@@H](OC)CC(OC2OC(CO)C(O)C(O)C2O)/C(=C\C#N)[C@@H]1O (stereo not given in full),inconclusive: -40.8%
8,N/C(=N\OC(=O)c1cccc(Cn2cc(C(F)(F)F)ccc2=O)c1)c1ccc(Cl)cc1,active: -64.5%
9,Cc1ccc(-c2cc3nc(C)cc(NCc4ccco4)n3n2)cc1,inactive: 118%
10,CCc1nnc(NS(=O)(=O)c2ccc(NC(=O)c3ccccc3C)cc2)s1,inconclusive: -51.2%
11,O=C1C(NS(=O)(=O)c2ccc(Cl)cc2)=C(N2CCCCC2)C(=O)c2ccccc21,inconclusive: -43.6%
12,O=C1NC[C@H](CCCCN2C[C@H](Cc3ccc(O)cc3)N(CCc3ccccc3)C(=O)C2=O)N(CC2CCCCC2)C1=O,inactive: 0.405%
13,O=C(NCc1ccco1)c1ccc2c(c1)N(Cc1ccccc1F)C(=O)c1ccccc1S2(=O)=O,active: -66.1%
14,COc1ccc(C(CNC(=O)Cc2ccccc2F)N2CCCCC2)cc1 (stereo not given),inconclusive: -54.4%
15,CS(=O)(=O)N(Cc1ccc(Cl)cc1)c1ccc(C(=O)NCCSc2ccccn2)cc1,inconclusive: -43.2%
16,O=C(COC(=O)c1c2c(nc3ccccc13)CCCCC2)NCc1ccc2c(c1)OCO2,inconclusive: -42.4%
17,O=C(Nc1ccc(CN2CCOCC2)cc1)c1ccc(-c2cccc([N+](=O)[O-])c2)o1,inconclusive: -53.3%
18,COc1ccc(CCNC(=O)C(=O)NCC(c2cccnc2)N2CCN(c3ccccc3)CC2)cc1 (stereo not given),inconclusive: -50.1%
19,CSc1ccc(CN2CCCC(CO)(Cc3ccccc3)C2)cc1 (stereo not given),inconclusive: -47.4%
20,COc1ccc(N(C)C(=O)c2cc3c(s2)-c2ccccc2OC3)cc1,inactive: -5.3%
21,Cc1ccc(Cl)cc1N1CCN(C(=O)C2CCCN(Cc3nc(-c4cccc(Cl)c4)oc3C)C2)CC1 (stereo not given),active: -69.2%
22,CCOc1ccc(S(=O)(=O)N2CCN(C(=O)c3ccc(-n4cncn4)c([N+](=O)[O-])c3)CC2)cc1,inactive: -3.83%

row,Structure (SMILES),"activity change, negative = inhibition"
1,O=C(Nc1ccc(N2CCOCC2)cc1)C1CCN(S(=O)(=O)Cc2ccccc2)CC1,inconclusive: -40.5%
2,Cc1cc(C)n(-c2nc3ccccc3nc2N2CCN(S(=O)(=O)c3ccc(F)c(C)c3)CC2)n1,inconclusive: -49.4%
3,O=C(Cn1c(-c2ccccc2)c[n+]2ccsc12)c1ccccc1,active: -61.6%
4,Cc1c(C(=O)Nc2ccc(-c3nnc4n3CCCCC4)cc2)oc2ccc(Br)cc12,inconclusive: -40.2%
5,Cc1cc(-c2ccc(S(=O)(=O)Nc3cccc(Cl)c3C)cc2)on1,inconclusive: -42.3%
6,CC(=O)Nc1cccc(-c2ccnc3c2CC(C(=O)NCc2ccc(F)c(F)c2)O3)c1 (stereo not given),inactive: -28.7%
7,COc1cc(NC(=S)NCCC(c2ccccc2)c2ccccc2)cc(OC)c1,inconclusive: -48.9%
8,CC(CCc1ccccc1)NC(=O)c1ccc(NC(=O)c2ccc(Cl)cc2Cl)cc1 (stereo not given),inconclusive: -50.4%
9,COc1ccc(-c2cc(=O)c3ccccc3n2C)cc1,inconclusive: -43.6%
10,Oc1c(C(Nc2ccccn2)c2cccnc2)cc(Cl)c2cccnc12 (stereo not given),inactive: 1.7%
11,CN(C)N1C(N)=C(C#N)C(c2cccs2)C2=C1CC(C)(C)CC2=O (stereo not given),inconclusive: -43.6%
12,Cc1cc(NC(=O)CSc2nnc(C)n2-c2ccccc2C)no1,inconclusive: -40.5%
13,COC(=O)c1c(S(C)(=O)=O)nc(-c2ccccc2)[nH]c1=O,inconclusive: -52.5%
14,Clc1ncnc2scc(-c3ccc(Br)cc3)c12,inconclusive: -49.2%
15,Cc1cc2c(Nc3ccccc3)ncnc2s1,inconclusive: -42.3%
16,Cc1ccc(C(=O)NC(=O)CSc2ncccc2C(=O)O)cc1,inactive: -35.1%
17,CC(=O)N1CCN(c2ccc(OC[C@H]3CO[C@](Cn4ccnc4)(c4ccc(Cl)cc4Cl)O3)cc2)CC1,inconclusive: -58.3%
18,COc1ccc(CC(NC(C)=O)C(=O)NC2CCN(S(=O)(=O)c3ccc(NC(C)=O)cc3)CC2)cc1OC (stereo not given),inconclusive: -57.2%
19,COc1cccc(/C=N/NC(=O)c2cc(-c3ccccn3)nc3ccccc23)c1O,active: -63.2%
20,COCCCNC(=O)CSc1nc2ccccc2c(=O)n1CCc1ccc(S(N)(=O)=O)cc1,inconclusive: -44.6%
21,COc1ccc(/C=N/N=C2/SCC(=O)N2Cc2ccccc2)cc1,inactive: 79.5%
22,Fc1ccc(NC(=S)Nc2ccccc2OC(F)F)cc1Cl,inconclusive: -45%

row,Structure (SMILES),"activity change, negative = inhibition"
1,Cc1ccc(-n2cccc2C(=O)NS(=O)(=O)c2ccc(C)cc2)cc1,inactive: 67.8%
2,Cc1ccccc1Nc1scc(-c2ccc(Br)cc2)[n+]1-c1ccccc1C,active: -68.6%
3,COc1ccc(C(=O)C2CCCN(C(=O)CCc3scnc3C)C2)c(C)c1 (stereo not given),active: -76.3%
4,Cc1cc(C)c(C#N)c(SCc2nnc(-c3ccccc3[N+](=O)[O-])o2)n1,active: -94.8%
5,CCOC(=O)c1ccc(NC(=O)c2c(NCc3cc(OC)ccc3OC)sc3c2CCC3)cc1,inactive: -11.6%
6,S=C(Nc1ccccc1)Nc1ccc2cn[nH]c2c1,inconclusive: -44.5%
7,CCOc1ccc(-n2cc(-c3ccccc3)c3c(=S)nc[nH]c32)cc1,inconclusive: -49.2%
8,CCc1nn(C(CC)C(=O)NCc2cccc(OC)c2OC)c(=O)c2cc3occc3n12 (stereo not given),inconclusive: -45.1%
9,O=S(=O)(Nc1cccc(-c2cn3c(n2)SCC3)c1)c1ccc(F)cc1F,inconclusive: -57.3%
10,CCn1cc(C(=O)Nc2ccc(C(C)C)cc2)c2cc(OC)c(OC)cc2c1=O,inconclusive: -43.5%
11,Cc1ccc(/C=N/NC(=O)c2ccc(Br)o2)s1,inactive: 59.7%
12,O=C(CCSCCC(=O)NCc1ccc(F)cc1)NCc1ccc(F)cc1,inconclusive: -42.5%
13,COCC(C)n1c(C)cc(C(=O)CSc2nc(C)c(C)c(C)n2)c1C (stereo not given),inconclusive: -40.9%
14,CCCNC(=O)N1CCC(c2nc3ccccc3s2)CC1,active: -75.2%
15,Oc1ccc(C(=S)N2CCCCC2)cc1Cl,active: -75.2%
16,Cc1nnsc1Sc1ccccc1,inactive: -5.05%
17,Cc1ccc(-n2c(SCc3cn4ccsc4n3)nc3ccccc3c2=O)cc1,active: -65.2%
18,O=CC1=C(c2ccccc2)Oc2ccccc2O1,active: -94.3%
19,CC(=O)N1CCN(C(=O)c2cccc(S(=O)(=O)Nc3c(C)n(C)n(-c4ccccc4)c3=O)c2)CC1,inconclusive: -40.3%
20,COCCN(C(=S)Nc1ccccc1C)C(C)c1ccco1 (stereo not given),inconclusive: -49.8%
21,Cc1c(C(=O)Nc2nnc(SCc3ccccc3Cl)s2)cccc1[N+](=O)[O-],inconclusive: -46.4%
22,CC1CN(S(=O)(=O)c2cccc(C(=O)Nc3ccc4c(c3)CCC4)c2)CC(C)O1 (stereo not given),inconclusive: -42.7%

row,Structure (SMILES),"activity change, negative = inhibition"
1,COc1ccc(NC(=O)CSCC(=O)N2CCCc3ccccc32)cc1,inactive: -10.4%
2,CC(C)(C)OC(=O)N(Cc1ccccc1)Cc1ccccc1OCc1ccc(NC(=O)C2CCC2)cc1,active: -90.2%
3,Cc1ccc(NC(=O)/C(C#N)=C/c2cn(CC(=O)NCc3ccco3)c3ccccc23)cc1C,inconclusive: -50.2%
4,O=C(Nc1ccc(NC(=O)c2ccccc2Cl)nc1)c1ccco1,inactive: -16.6%
5,COc1ccccc1N1CCN(c2nc3ccccn3c(=O)c2C=O)CC1,inactive: 45.4%
6,N#Cc1c(N)c(C#N)c(-c2ccc(O)cc2)c2c1CCCC2,inconclusive: -44%
7,Cc1ccc(-n2c(SCC(=O)N3CCN(c4ccccn4)CC3)nnc2N2CCCC2)cc1,inconclusive: -40.1%
8,CCOc1ccc(/C=C/c2nc3ccccc3n2S(=O)(=O)c2cccc(Cl)c2)cc1,active: -79.8%
9,CCOc1ccc(C(=O)Nc2ccc3nc(SCC(=O)N(C)c4ccccc4)sc3c2)cc1,inconclusive: -50.1%
10,CCOc1ccc(NC(=O)C(=O)NCCN2CCN(C(=O)c3ccc(C)cc3)CC2)cc1,inconclusive: -50%
11,CN(Cc1cccs1)C(=O)COc1ccc(-c2nnco2)cc1,active: -100%
12,Cc1ccccc1OCCCSc1nc2ccccc2[nH]1,active: -70.4%
13,COCC(=O)Nc1cc(C)cn(Cc2ccccc2Cl)c1=O,inactive: 9.35%
14,O=C(O)C1CCN(C(=O)CCN2C(=O)S/C(=C\c3ccccc3)C2=O)CC1,inconclusive: -41.5%
15,CCOc1ccc(C(O)(CCC(C)C)C(CN2CCOCC2)c2ccccc2)cc1 (stereo not given),inconclusive: -51.9%
16,COc1cc(/C=N/NC(=O)c2ccc(-n3cccc3)cc2)ccc1O,inconclusive: -54.9%
17,COc1ccc(NC(C)C(=O)N/N=C/c2ccc([N+](=O)[O-])s2)cc1 (stereo not given),inconclusive: -41.8%
18,CC(=O)c1ccc(NC(=O)N2CCCC(C(=O)c3ccc4c(c3)OCO4)C2)cc1 (stereo not given),inactive: 15.8%
19,COc1ccc(OCC(=O)NCCS(=O)(=O)N2CCN(c3ccc(F)cc3)CC2)cc1,inconclusive: -46.7%

# Structures from the list above that have bromine (four):
row,Structure (SMILES),"activity change, negative = inhibition"
4,Cc1c(C(=O)Nc2ccc(-c3nnc4n3CCCCC4)cc2)oc2ccc(Br)cc12,inconclusive: -40.2%
14,Clc1ncnc2scc(-c3ccc(Br)cc3)c12,inconclusive: -49.2%
2,Cc1ccccc1Nc1scc(-c2ccc(Br)cc2)[n+]1-c1ccccc1C,active: -68.6%
11,Cc1ccc(/C=N/NC(=O)c2ccc(Br)o2)s1,inactive: 59.7%
